The assay addresses Stat3 (human (endogenous in HPDE)) (UniProt P40763). Briefly: co-IP; control or SgK223-overexpressing HPDE cells lysed in normal lysis buffer; IP with Stat3 antibodies or mouse IgG (negative control); Western blot.

Protein sequences, listed by entry. Tags and fused reporters are not part of them.
UniProt P40763: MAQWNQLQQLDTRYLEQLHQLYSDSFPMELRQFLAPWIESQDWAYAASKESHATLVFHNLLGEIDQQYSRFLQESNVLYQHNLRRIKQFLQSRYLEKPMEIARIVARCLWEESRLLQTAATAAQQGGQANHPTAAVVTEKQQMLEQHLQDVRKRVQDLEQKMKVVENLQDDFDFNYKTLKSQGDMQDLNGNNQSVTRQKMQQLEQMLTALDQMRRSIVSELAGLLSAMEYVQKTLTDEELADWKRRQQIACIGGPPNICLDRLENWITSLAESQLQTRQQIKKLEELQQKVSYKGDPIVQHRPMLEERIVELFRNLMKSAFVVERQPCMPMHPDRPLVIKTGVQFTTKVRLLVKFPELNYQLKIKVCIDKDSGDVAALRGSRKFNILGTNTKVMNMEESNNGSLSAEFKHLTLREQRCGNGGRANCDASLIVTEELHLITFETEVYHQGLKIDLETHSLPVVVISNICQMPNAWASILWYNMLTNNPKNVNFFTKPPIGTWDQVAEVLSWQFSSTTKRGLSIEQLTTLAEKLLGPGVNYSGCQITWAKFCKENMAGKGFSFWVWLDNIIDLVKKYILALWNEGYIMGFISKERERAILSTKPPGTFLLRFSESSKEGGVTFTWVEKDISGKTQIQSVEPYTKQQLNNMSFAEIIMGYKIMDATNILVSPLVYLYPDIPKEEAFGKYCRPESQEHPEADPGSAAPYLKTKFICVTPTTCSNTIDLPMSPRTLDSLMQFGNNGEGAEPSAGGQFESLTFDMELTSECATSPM

Results are given in words; binding and its absence hold for the method and conditions named. Binding seen in cells or lysates may run through a third protein. Some binding calls cover weakened binding; strength is not graded here. Tags and fused reporters may be left off the sequences shown.

B1: SgK223 (rat), expressed from pBabe-puro/myc-Pragmin (protein, UniProt D3ZMK9 1-1368)
chain: MSACSDFVEHIWKPGSCKNCFCLRSDHQLTAGHPKARASSLPAGARLPARPEICRLEDEGVNGLAYSKPTIAVKPTMMTSETADLWTEASLSAEVPKVNWRRTPGKLLLQKQEDGPIVYLGSFRGMQKAAGPLACTDSNSRCPPAYTMVGLHNLEARVDRNTALQPVNFQEEKAGREELPSAQESFRQKLAAFTGMTSSCLKGPRPCTSPQPLRESLPSEDDSDQRCSPSGDSEGGEYCSILDCRPESRDAVHNTEGSGRRRGDCSPICWEQGTCTRPTEEEKQALNFPRECCGQGSTANPPHLGPKKPSLNSEAASSSDGLSCGSSRSGANSPFAPHLENDYCSLVKEPTSVKQQDSGCHLVNSGKYVGQAVDLQPPALPREAVQPEPIYAESAKRKKAAPVPQRPEPKKEQVSSGQVWTGDTWSQKTPSGWSQEREGPNAAPQVATTITVIAAHPEEDHRTIYLSSPDSAVGVQWPRGSLNQDLHGSGEEPLVVQGLSSRESHPHNMTENSSKEKPAIPPKLSKSSPGGSPVSPAAPPLTDHSDGNTSGSSVGSQPSSRVPTNLTSSCQTNGVAAGDPAKCPPQANSSVLDQRRPRYQTGAWSRQCRIEEEEEVGQELLSQSWGRELENGIADHSNSSTWHRLHPIDGASGQNGKTNSGMSKSASFAFEFPKDRGRLESFSPPPPPPKSRHLLKMNKSSSDLEKVSQSSAESLSPSFRGAHVSFTTGSTDSLASDSRTCSDGGPSCEATHSPTISGKKLFAPVPFPSGSTEDVSPSGPAQPPPLPQKKIVSRAASSPDGFFWTQGSPKPRTASPKLNLSHSETNVCAHDEPPLSYSLNSGNHPHHVFSSSEPLEKAFKGSVPWAPALGPANSKGGCGSPNLQGRAATSTSSSQLSVSSQASTGSSQLQLHSLLSSISSKEGTYAKLGGLYTQSLARLVTKCEDLFMGGLKTELRFDENSWSLFKLICNKPCCDSGDAIYYGATCSKDPDSIYAVKICKTPEPKSASYCSPSVPVHFNIQQDCGHFVASVPSSMLAFPDTSSKDPAPAAPSHTPAQEQDCVVVITREVPHQTASDFVRDSVASHRAEPEVYERRVCFLLLQLCNGLEHLKEHGIIHRDLCLENLLLVHCNPQSSPGPSANPSVPTTTSRCPSAAPAATTACQGGPGEKHLPRLIISNFLKAKQKPGGTTNLQQKKSQARLAPEIVSASQYRKFDEFQTGILIYELLHQPNPFEVRAQLRERDYRREDLPPLPTLSLYSPGLQQLAHLLLEADPIKRIRIGEAKRVLQCLLWGPRRELVEQPCPSEEVLCNTLHNWIDMKRALMMMKFAEKAVERRRGVELEDWLCCQYLASAEPGALLQSLKLLQLL
For B1, the binding entry was “binds”.

Values taken from publication PMC4517651.
